Test results published in patent US6376240.
Results from cells or extracts need not show a direct contact. For some of these results: The exact form of at least one protein or probe is not confirmed. For some of these results: No signal at the amounts used counts as a negative. For some of these results: Protein sequences can lack the tags named with them.

Chains of the proteins cited; added tags and fusions are not shown. Lines headed by an entry give the natural chain unless they say otherwise; changes in a name come on top. Residues count along the entry.
UniProt Q02447: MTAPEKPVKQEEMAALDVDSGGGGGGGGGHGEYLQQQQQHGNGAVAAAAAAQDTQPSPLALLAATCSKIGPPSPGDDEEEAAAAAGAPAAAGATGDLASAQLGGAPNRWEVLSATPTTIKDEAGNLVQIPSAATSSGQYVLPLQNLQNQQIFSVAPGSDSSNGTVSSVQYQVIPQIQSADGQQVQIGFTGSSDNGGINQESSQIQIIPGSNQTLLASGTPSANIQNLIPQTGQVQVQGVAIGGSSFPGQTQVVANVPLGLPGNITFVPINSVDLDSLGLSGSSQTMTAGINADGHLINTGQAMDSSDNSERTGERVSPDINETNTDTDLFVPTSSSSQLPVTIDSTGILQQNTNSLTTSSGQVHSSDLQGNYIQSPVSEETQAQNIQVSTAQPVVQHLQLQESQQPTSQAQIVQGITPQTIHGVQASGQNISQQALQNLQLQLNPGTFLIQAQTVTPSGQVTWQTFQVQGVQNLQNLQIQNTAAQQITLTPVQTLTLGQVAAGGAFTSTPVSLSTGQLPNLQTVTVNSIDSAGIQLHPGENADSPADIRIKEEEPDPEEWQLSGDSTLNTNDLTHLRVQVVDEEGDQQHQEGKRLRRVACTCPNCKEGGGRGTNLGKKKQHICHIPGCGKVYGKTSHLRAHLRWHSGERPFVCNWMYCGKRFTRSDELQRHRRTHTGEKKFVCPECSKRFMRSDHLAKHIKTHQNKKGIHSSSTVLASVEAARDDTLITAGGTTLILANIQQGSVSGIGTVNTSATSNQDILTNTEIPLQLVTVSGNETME
UniProt P08047, 2-785: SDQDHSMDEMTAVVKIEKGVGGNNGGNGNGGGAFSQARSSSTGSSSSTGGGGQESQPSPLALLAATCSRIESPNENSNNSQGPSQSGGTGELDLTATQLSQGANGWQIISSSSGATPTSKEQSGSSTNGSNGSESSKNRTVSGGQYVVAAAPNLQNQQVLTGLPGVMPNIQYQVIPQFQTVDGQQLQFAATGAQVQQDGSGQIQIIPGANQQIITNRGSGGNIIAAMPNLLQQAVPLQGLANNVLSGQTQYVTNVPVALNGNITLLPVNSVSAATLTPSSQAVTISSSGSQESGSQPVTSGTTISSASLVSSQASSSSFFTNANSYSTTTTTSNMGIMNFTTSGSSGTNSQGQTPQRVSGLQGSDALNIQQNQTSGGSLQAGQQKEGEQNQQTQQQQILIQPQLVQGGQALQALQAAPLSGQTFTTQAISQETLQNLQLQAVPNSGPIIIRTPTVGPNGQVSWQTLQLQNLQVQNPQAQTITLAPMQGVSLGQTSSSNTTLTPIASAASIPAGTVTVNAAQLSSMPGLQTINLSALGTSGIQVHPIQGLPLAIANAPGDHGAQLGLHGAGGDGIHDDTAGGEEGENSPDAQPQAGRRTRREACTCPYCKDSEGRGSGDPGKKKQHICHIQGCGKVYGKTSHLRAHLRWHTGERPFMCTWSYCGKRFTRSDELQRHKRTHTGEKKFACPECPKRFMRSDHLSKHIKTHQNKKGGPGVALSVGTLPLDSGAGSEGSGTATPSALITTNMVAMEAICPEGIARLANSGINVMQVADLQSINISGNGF

What was measured:
[1] = biological target: RFLAT-1 (in activated PBL nuclear extract complex) (homo sapien) (UniProt Q9Y2Y9); assay: EMSA; details: protein in an extract, label: 32P
Sp3 = Sp3 (UniProt Q02447); assay: EMSA; details: anti-Sp3 gave no supershift or disruption; protein in an extract; label: 32P
Sp1 = Sp1 (UniProt P08047); assay: EMSA; details: anti-Sp1 gave no supershift or disruption; protein in an extract; label: 32P
c-Rel = biological target: T1, c-Rel (UniProt Q04864); assay: EMSA; details: anti-c-rel gave no supershift; protein in an extract; label: 32P
T1 sequence (looked up, limits assumed): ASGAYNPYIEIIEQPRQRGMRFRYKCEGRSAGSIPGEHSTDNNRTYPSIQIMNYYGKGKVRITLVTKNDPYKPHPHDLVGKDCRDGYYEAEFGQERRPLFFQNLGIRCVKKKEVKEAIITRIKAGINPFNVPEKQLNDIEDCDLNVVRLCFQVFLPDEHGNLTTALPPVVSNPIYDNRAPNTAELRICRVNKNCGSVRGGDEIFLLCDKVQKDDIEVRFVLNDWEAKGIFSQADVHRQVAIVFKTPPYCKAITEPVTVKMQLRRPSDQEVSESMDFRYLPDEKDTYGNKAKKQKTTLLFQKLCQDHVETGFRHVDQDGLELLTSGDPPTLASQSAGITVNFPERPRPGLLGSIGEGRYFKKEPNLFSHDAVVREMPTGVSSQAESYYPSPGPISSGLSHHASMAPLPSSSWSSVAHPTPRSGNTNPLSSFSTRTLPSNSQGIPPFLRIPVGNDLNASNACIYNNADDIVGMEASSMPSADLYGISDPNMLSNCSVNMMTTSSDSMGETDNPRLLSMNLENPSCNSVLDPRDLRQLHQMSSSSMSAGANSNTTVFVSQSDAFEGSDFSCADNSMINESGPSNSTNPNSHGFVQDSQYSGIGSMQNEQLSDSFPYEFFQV

[2] = system: NF-kB p50/p65 (in activated PBL nuclear extract complex); assay: EMSA; details: anti-p50 and anti-p65 supershift both bands; protein in an extract; label: 32P
[3] = biological target: RFLAT-1 C-terminal portion (phage expression clone, nt 550-1430) (homo sapien) (UniProt Q9Y2Y9); assay: binding assay; details: plaque expression screening; 10 mM Tris pH 7.5, 80 mM NaCl, 1 mM EDTA, 25 C, calf thymus DNA; protein in a lysate after overexpression; protein details: lambda gt11 plaque expression; label: 32P

AATTCGCTATTTTGGAAACTCCCCTTAGGGGATGCCCCTCAACTGCG (double strand) [A/B probe]
binding result ([1]; anti-RFLAT-1 disrupts bands 1 and 2, complex also contains NF-kB): binds | binding result (Sp3): no binding | binding result (Sp1): no binding | binding result (c-Rel): no binding | binding result [2]: binds

AATTCGTTGCTATTTTGGAAACTCCCCTTG (double strand) [A probe]
binding result ([1]; antibody disruption, data not shown, variant of A/B probe): binds

GGGAATTCGAATTCGCTATTTTGGAAACTCCCCTTAGGGCTATTTTGGAAACTCCCCTTAGGGCTATTTTGGAAACTCCCCTTAGGCTCGAGCTCGAGGG (double strand) [A3 (three tandem A sites)]
binding result [3]: binds
